According to the supplement of paper PMC3334620:
Whole data set: some 33,000 sequences, median “E-score (-0.5 to 0.5)” near -0.0014, cut for the highest 2% near 0.25. This is one part of the list.

What follows are sequences tested against T1, Cad1 (UniProt P24813) (assay: PBM E-score (8-mer binding enrichment) (E-score (-0.5 to 0.5)); higher = stronger / more preferred TF binding). Settings: protein concentration: 100 nM; construct: GST-full length.
T1 sequence: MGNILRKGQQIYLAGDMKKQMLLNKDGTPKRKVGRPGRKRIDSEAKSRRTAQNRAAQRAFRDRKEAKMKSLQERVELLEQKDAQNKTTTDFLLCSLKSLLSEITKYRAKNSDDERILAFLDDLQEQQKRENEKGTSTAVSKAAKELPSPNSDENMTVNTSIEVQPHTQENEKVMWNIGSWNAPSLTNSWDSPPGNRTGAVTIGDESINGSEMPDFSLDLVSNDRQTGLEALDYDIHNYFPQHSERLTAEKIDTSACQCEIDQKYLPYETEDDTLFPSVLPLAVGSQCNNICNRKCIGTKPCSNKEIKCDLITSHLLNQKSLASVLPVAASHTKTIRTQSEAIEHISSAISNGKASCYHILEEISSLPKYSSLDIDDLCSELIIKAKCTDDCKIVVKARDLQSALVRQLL
Method in brief: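 Detection of bound protein used fluorescent anti-GST, with scans normalised by masliner. The proteins were GST-tagged yeast transcription factors applied at about 100-200 nM to universal all-10-mer Agilent arrays made double-stranded by primer extension. Each ungapped eight-base word, pooled with its reverse complement, was scored with an E-score from the Universal PBM Analysis Suite.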
ACTGAACA was tested, and the “PBM E-score” value was 0.213. GAGGATAA was tested, and the “PBM E-score” value was 0.135. In the case of TACACATA, the “PBM E-score” value is reported as 0.152. With AGGTAGCG the “PBM E-score” value was -0.0253. AGGGCTGA was tested, and the “PBM E-score” value was -0.0362. For CTGCTTTC, the “PBM E-score” value was 0.0536. With ATGGACAC the “PBM E-score” value was 0.0821. AAGTAAAT was tested, and the “PBM E-score” value was 0.0942. In the case of CGGTAGCA, the “PBM E-score” value is reported as -0.0437. With ACGCGGCA the “PBM E-score” value was 0.00015. AGGGCCGA was tested, and the “PBM E-score” value was 0.122. In the case of AAGCATGC, the “PBM E-score” value is reported as 0.0819. In the case of AGCTGTGC, the “PBM E-score” value is reported as -0.0191. GAAAAGAA was tested, and the “PBM E-score” value was 0.0494. With CAGGATGC the “PBM E-score” value was -0.0999. With GTGCGTTA the “PBM E-score” value was 0.146. In the case of TGATACAA, the “PBM E-score” value is reported as -0.0341. With GATGGCCA the “PBM E-score” value was 0.116. In the case of ACTCCCAC, the “PBM E-score” value is reported as -0.26. With CACCCTGA the “PBM E-score” value was -0.06. With GACAGGAA the “PBM E-score” value was 0.167. In the case of ACCATTCT, the “PBM E-score” value is reported as -0.184. In the case of CTGTATGA, the “PBM E-score” value is reported as 0.112. ACGTAGAG was tested, and the “PBM E-score” value was -0.0849. In the case of TAACTACA, the “PBM E-score” value is reported as 0.157. CAAAACAC was tested, and the “PBM E-score” value was -0.0151. For CACCCTCC, the “PBM E-score” value was -0.168. For CGATCCGA, the “PBM E-score” value was 0.251. CTGCGCAA was tested, and the “PBM E-score” value was 0.085. For AGTGGAAG, the “PBM E-score” value was -0.238. With ATGAACTG the “PBM E-score” value was 0.231. CCCGACTC was tested, and the “PBM E-score” value was -0.0769. With CCAGTAGC the “PBM E-score” value was -0.0664. GATTGTTA was tested, and the “PBM E-score” value was 0.0925. For CCTCAGCG, the “PBM E-score” value was -0.0995. In the case of AAACCTTC, the “PBM E-score” value is reported as -0.205. In the case of AACGAGCT, the “PBM E-score” value is reported as -0.0413. TAACGCCA was tested, and the “PBM E-score” value was 0.0123. In the case of AGCTACTG, the “PBM E-score” value is reported as 0.174. With TGATTACA the “PBM E-score” value was 0.275. For CAACCTCC, the “PBM E-score” value was -0.126. With ATGCCTAG the “PBM E-score” value was -0.255. With AAGATGAA the “PBM E-score” value was 0.0257. In the case of ACCCCTAT, the “PBM E-score” value is reported as 0.0561. In the case of AGTATCCA, the “PBM E-score” value is reported as 0.0823. In the case of ATCAAGAA, the “PBM E-score” value is reported as 0.223. For CAGTGTGA, the “PBM E-score” value was 0.113. In the case of CGATGTGC, the “PBM E-score” value is reported as -0.00621. With GTCAACGA the “PBM E-score” value was 0.0496. For CGACCTGC, the “PBM E-score” value was -0.0229. In the case of ACCATGCG, the “PBM E-score” value is reported as -0.0289. GGGTCGCA was tested, and the “PBM E-score” value was -0.0272. For ATCGCCAA, the “PBM E-score” value was -0.0182. With CGCCTATC the “PBM E-score” value was -0.0721. In the case of GCTCTTGA, the “PBM E-score” value is reported as -0.0961. For CATTGGTA, the “PBM E-score” value was 0.0339. For ATGTCCTC, the “PBM E-score” value was 0.0753. With CTCACACC the “PBM E-score” value was -0.0508. In the case of AGTCATGG, the “PBM E-score” value is reported as -0.079. ACTACCAG was tested, and the “PBM E-score” value was -0.187. CGTGTGGC was tested, and the “PBM E-score” value was 0.0386. For TCTATCAA, the “PBM E-score” value was 0.101. With CCCTGCTA the “PBM E-score” value was -0.171. GCTATGCC was tested, and the “PBM E-score” value was -0.123. For AATAAAGT, the “PBM E-score” value was 0.0961. In the case of AGAGAATG, the “PBM E-score” value is reported as 0.0962. With ACTCCTCA the “PBM E-score” value was -0.225. With AGGTCGTA the “PBM E-score” value was 0.0952. In the case of AGTACAGC, the “PBM E-score” value is reported as -0.0179. For AAAACCGC, the “PBM E-score” value was 0.033. In the case of AGTGCAGA, the “PBM E-score” value is reported as -0.0627. AACAAGTT was tested, and the “PBM E-score” value was 0.00514. In the case of AAACTCCA, the “PBM E-score” value is reported as -0.0306. With ATACAATC the “PBM E-score” value was 0.0426. For ACGGGGCG, the “PBM E-score” value was 0.199. In the case of CATGGCGC, the “PBM E-score” value is reported as 0.0115. With CACGACGC the “PBM E-score” value was -0.131. For CGCCCGCC, the “PBM E-score” value was 0.0039. With ACGACTAG the “PBM E-score” value was 0.073. AACGCATG was tested, and the “PBM E-score” value was 0.0935. In the case of ATACATCG, the “PBM E-score” value is reported as 0.197. For AGATTTGC, the “PBM E-score” value was 0.182. In the case of ATCCATTA, the “PBM E-score” value is reported as 0.0411. With CGCATCCG the “PBM E-score” value was -0.0538. For AAGGTATA, the “PBM E-score” value was -0.00636. For ATCCGCGA, the “PBM E-score” value was 0.0515.
